Test results as given in publication PMC11637432.
Results are given in words; binding and its absence hold for the method and conditions named. In cells and extracts the contact can be indirect. Some entries that bind do so weakly or less than the wild type. For some of these results: Where a sequence is shown, tags or fusion partners need not be part of it.

Amino acid sequences for entries named in this document (tags omitted).
UniProt P48436: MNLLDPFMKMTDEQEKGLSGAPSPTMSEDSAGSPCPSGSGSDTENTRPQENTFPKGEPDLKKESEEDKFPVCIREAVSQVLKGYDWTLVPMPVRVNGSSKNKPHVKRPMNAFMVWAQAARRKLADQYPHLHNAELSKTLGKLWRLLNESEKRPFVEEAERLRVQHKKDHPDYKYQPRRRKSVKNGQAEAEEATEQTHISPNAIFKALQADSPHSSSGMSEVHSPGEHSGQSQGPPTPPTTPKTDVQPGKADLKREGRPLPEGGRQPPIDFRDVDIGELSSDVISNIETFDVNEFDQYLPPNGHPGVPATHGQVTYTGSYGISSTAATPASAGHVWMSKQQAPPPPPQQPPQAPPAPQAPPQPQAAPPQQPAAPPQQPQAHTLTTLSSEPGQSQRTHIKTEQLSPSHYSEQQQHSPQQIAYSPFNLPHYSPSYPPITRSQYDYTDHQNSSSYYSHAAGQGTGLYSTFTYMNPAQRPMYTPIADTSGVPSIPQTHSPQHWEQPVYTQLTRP
UniProt O75030: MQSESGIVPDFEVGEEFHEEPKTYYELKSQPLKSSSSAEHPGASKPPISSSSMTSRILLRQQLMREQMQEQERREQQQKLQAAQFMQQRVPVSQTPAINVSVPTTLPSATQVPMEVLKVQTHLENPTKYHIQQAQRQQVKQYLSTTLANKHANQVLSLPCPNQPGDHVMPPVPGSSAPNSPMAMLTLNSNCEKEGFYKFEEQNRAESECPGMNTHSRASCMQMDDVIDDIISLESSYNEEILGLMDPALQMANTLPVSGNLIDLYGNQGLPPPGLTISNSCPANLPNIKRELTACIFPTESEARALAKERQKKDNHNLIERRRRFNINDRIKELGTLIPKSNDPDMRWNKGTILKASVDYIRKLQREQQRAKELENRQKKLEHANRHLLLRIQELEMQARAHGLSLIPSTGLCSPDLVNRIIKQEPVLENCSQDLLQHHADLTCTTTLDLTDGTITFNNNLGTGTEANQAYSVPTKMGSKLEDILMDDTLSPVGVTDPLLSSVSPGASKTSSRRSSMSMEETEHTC

Columns and labels:
[1] = target: T1, GST-BBS2 (UniProt Q9BXC9); assay: pull-down; GST-tagged BBSome proteins on Glutathione Sepharose 4B beads incubated with HEK293T lysate expressing MC1R-3×Flag, 4 h at 4°C; GST buffer (150 mM NaCl, 1 mM MgCl2, 50 mM Hepes, 1 mM EGTA, 0.5% Triton X-100, pH 7.4); only the target purified
T1 sequence: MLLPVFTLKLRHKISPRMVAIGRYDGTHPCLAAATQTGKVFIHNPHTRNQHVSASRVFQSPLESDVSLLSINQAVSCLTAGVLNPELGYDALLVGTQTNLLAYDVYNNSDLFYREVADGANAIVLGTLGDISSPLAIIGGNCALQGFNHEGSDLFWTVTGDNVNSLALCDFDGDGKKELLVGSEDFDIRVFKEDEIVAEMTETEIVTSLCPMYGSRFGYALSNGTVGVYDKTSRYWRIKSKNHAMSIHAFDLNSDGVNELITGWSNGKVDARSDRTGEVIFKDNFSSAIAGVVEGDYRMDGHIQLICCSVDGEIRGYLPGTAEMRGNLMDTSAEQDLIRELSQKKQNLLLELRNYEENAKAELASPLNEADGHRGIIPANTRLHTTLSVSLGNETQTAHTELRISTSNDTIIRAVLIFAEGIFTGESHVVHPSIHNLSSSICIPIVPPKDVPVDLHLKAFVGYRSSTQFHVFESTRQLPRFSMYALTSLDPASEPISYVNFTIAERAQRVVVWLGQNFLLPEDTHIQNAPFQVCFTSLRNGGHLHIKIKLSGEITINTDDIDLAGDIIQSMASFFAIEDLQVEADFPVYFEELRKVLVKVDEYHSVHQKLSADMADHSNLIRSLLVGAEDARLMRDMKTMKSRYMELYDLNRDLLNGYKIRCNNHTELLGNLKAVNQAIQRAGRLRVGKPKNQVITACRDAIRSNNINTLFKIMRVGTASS

[2] = target: Sox9-3×Flag (UniProt P48436); assay: co-IP; HEK293T cells transfected with Sox9-3×Flag and MITF-HA; immunoprecipitation with antibodies against Flag and against HA
[3] = target: MC1R-3×Flag (UniProt Q01726); assay: co-IP; HEK293T cells transfected with variants of MC1R-3×Flag and BBS2-HA; immunoprecipitation with the Flag antibody
[4] = target: T2, C315S MC1R-3×Flag (UniProt Q01726); assay: as above
T2 sequence: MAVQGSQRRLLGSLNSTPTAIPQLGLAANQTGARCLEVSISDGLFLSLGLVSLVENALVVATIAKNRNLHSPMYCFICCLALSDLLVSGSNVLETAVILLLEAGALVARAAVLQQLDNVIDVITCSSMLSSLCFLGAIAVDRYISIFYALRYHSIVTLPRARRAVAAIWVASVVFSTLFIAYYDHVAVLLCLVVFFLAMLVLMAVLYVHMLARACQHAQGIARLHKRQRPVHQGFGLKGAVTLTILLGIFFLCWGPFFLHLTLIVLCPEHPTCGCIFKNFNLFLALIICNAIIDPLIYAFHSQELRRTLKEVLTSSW

[5] = target: T3, MC1R-3×Flag R160W (UniProt Q01726); assay: as above
T3 sequence: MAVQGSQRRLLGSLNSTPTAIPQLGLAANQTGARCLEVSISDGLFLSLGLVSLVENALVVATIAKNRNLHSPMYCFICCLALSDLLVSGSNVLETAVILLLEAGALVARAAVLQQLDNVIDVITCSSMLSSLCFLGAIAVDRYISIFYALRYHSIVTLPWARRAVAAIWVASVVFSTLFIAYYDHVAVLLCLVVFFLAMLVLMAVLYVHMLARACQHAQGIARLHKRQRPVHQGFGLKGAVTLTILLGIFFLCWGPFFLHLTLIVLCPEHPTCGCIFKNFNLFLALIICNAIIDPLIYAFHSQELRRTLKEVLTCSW

[6] = target: T4, MC1R-3×Flag R151C (UniProt Q01726); assay: as above
T4 sequence: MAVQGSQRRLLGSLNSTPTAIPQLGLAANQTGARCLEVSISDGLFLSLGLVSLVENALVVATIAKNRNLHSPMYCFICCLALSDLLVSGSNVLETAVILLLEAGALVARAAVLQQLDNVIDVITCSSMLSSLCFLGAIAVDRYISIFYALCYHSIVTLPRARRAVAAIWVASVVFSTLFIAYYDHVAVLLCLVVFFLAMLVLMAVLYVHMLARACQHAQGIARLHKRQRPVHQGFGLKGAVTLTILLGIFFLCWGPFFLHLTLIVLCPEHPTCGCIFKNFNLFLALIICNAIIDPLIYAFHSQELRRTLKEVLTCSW

[7] = target: MC1R-mEmerald (UniProt Q01726); assay: co-IP; A375 MC1R-KO cells transfected with MC1R-mEmerald; UV then with or without 100 nM α-MSH for 36 h without serum; with or without BBS2 shRNAs; lysis in 50 mM Tris, 1% Triton X-100, 0.5 mM EDTA, 0.5 mM EGTA, 150 mM NaCl, 10% glycerol, pH 7.4; blots for endogenous BBSome proteins

For “MC1R-3×Flag (from UniProt Q01726 1-317) (receptor)”, the binding [1] was “binds”.

For MITF-HA (from UniProt O75030 1-526), the binding [2] was “binds”.

B1: BBS2-HA (protein, UniProt Q9BXC9 1-721)
chain: MLLPVFTLKLRHKISPRMVAIGRYDGTHPCLAAATQTGKVFIHNPHTRNQHVSASRVFQSPLESDVSLLSINQAVSCLTAGVLNPELGYDALLVGTQTNLLAYDVYNNSDLFYREVADGANAIVLGTLGDISSPLAIIGGNCALQGFNHEGSDLFWTVTGDNVNSLALCDFDGDGKKELLVGSEDFDIRVFKEDEIVAEMTETEIVTSLCPMYGSRFGYALSNGTVGVYDKTSRYWRIKSKNHAMSIHAFDLNSDGVNELITGWSNGKVDARSDRTGEVIFKDNFSSAIAGVVEGDYRMDGHIQLICCSVDGEIRGYLPGTAEMRGNLMDTSAEQDLIRELSQKKQNLLLELRNYEENAKAELASPLNEADGHRGIIPANTRLHTTLSVSLGNETQTAHTELRISTSNDTIIRAVLIFAEGIFTGESHVVHPSIHNLSSSICIPIVPPKDVPVDLHLKAFVGYRSSTQFHVFESTRQLPRFSMYALTSLDPASEPISYVNFTIAERAQRVVVWLGQNFLLPEDTHIQNAPFQVCFTSLRNGGHLHIKIKLSGEITINTDDIDLAGDIIQSMASFFAIEDLQVEADFPVYFEELRKVLVKVDEYHSVHQKLSADMADHSNLIRSLLVGAEDARLMRDMKTMKSRYMELYDLNRDLLNGYKIRCNNHTELLGNLKAVNQAIQRAGRLRVGKPKNQVITACRDAIRSNNINTLFKIMRVGTASS
With B1 the binding [3] was “binds”, the binding [4] was “binds” and the binding [5] was “binds”. The binding [6] was “binds”.

B2: endogenous BBS2 (protein, UniProt Q9BXC9 1-721)
chain: MLLPVFTLKLRHKISPRMVAIGRYDGTHPCLAAATQTGKVFIHNPHTRNQHVSASRVFQSPLESDVSLLSINQAVSCLTAGVLNPELGYDALLVGTQTNLLAYDVYNNSDLFYREVADGANAIVLGTLGDISSPLAIIGGNCALQGFNHEGSDLFWTVTGDNVNSLALCDFDGDGKKELLVGSEDFDIRVFKEDEIVAEMTETEIVTSLCPMYGSRFGYALSNGTVGVYDKTSRYWRIKSKNHAMSIHAFDLNSDGVNELITGWSNGKVDARSDRTGEVIFKDNFSSAIAGVVEGDYRMDGHIQLICCSVDGEIRGYLPGTAEMRGNLMDTSAEQDLIRELSQKKQNLLLELRNYEENAKAELASPLNEADGHRGIIPANTRLHTTLSVSLGNETQTAHTELRISTSNDTIIRAVLIFAEGIFTGESHVVHPSIHNLSSSICIPIVPPKDVPVDLHLKAFVGYRSSTQFHVFESTRQLPRFSMYALTSLDPASEPISYVNFTIAERAQRVVVWLGQNFLLPEDTHIQNAPFQVCFTSLRNGGHLHIKIKLSGEITINTDDIDLAGDIIQSMASFFAIEDLQVEADFPVYFEELRKVLVKVDEYHSVHQKLSADMADHSNLIRSLLVGAEDARLMRDMKTMKSRYMELYDLNRDLLNGYKIRCNNHTELLGNLKAVNQAIQRAGRLRVGKPKNQVITACRDAIRSNNINTLFKIMRVGTASS
With B2 the binding [7] was “binds”.
